Test results from paper PMC7372117.
Results are given in words; binding and its absence hold for the method and conditions named. Binding seen in cells or lysates may run through a third protein. Some results given as binding are weak or reduced against the parent protein; the word gives no strength.

Molecular target: T1, Pds5B (human (endogenous in HeLa)) (UniProt Q9NTI5)
T1 sequence: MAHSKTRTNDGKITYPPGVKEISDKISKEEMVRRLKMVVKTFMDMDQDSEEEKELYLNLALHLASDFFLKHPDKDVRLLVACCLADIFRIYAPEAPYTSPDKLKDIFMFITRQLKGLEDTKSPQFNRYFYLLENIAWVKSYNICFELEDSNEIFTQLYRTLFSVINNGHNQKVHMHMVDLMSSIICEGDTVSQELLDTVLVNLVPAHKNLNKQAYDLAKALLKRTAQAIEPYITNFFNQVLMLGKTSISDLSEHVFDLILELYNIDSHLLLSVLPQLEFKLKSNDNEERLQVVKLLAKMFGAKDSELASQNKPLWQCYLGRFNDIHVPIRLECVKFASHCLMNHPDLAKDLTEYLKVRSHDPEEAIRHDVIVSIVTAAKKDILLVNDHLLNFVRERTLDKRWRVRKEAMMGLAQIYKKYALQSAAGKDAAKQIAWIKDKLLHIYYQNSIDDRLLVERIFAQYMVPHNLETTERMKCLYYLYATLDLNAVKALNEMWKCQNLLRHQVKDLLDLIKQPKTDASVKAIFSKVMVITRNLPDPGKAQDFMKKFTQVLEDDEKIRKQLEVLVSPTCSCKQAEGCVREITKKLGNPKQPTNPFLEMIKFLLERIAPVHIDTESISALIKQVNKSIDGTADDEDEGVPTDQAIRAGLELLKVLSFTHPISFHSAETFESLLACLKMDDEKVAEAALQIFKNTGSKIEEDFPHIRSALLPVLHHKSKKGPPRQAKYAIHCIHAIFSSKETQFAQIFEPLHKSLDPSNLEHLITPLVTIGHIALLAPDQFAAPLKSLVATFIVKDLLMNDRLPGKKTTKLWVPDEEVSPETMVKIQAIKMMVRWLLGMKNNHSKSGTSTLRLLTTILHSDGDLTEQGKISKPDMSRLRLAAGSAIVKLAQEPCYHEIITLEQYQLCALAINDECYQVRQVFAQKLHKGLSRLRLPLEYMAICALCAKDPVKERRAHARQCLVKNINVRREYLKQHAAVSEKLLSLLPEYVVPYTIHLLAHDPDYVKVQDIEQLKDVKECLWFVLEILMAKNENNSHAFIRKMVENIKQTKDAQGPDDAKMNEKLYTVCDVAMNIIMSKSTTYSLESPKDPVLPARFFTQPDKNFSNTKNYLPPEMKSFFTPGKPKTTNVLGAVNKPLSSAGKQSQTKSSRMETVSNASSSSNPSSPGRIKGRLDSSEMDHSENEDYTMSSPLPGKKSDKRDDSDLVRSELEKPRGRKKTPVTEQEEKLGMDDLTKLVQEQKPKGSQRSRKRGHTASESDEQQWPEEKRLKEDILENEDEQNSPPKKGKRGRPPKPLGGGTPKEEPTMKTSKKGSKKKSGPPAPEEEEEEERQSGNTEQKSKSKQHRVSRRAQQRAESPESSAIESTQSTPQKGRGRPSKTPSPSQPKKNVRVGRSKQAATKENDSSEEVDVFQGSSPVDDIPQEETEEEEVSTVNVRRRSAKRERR
Test: co-IP; Pds5A or Pds5B immunoprecipitated (1 ug antibody on protein A sepharose, overnight, 4°C) from chromatin-associated protein fractions (micrococcal nuclease) of nocodazole-arrested HeLa cells; western blot against Scc1; asynchronous cells and soluble fractions run in parallel

- binding: binds
B1: Scc1 (protein, UniProt O60216 1-631)
chain: MFYAHFVLSKRGPLAKIWLAAHWDKKLTKAHVFECNLESSVESIISPKVKMALRTSGHLLLGVVRIYHRKAKYLLADCNEAFIKIKMAFRPGVVDLPEENREAAYNAITLPEEFHDFDQPLPDLDDIDVAQQFSLNQSRVEEITMREEVGNISILQENDFGDFGMDDREIMREGSAFEDDDMLVSTTTSNLLLESEQSTSNLNEKINHLEYEDQYKDDNFGEGNDGGILDDKLISNNDGGIFDDPPALSEAGVMLPEQPAHDDMDEDDNVSMGGPDSPDSVDPVEPMPTMTDQTTLVPNEEEAFALEPIDITVKETKAKRKRKLIVDSVKELDSKTIRAQLSDYSDIVTTLDLAPPTKKLMMWKETGGVEKLFSLPAQPLWNNRLLKLFTRCLTPLVPEDLRKRRKGGEADNLDEFLKEFENPEVPREDQQQQHQQRDVIDEPIIEEPSRLQESVMEASRTNIDESAMPPPPPQGVKRKAGQIDPEPVMPPQQVEQMEIPPVELPPEEPPNICQLIPELELLPEKEKEKEKEKEDDEEEEDEDASGGDQDQEERRWNKRTQQMLHGLQRALAKTGAESISLLELCRNTNRKQAAAKFYSFLVLKKQQAIELTQEEPYSDIIATPGPRFHII
